Measurements reported in PubChem BioAssay AID1259308 (NCATS, 2017)
Test: 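Genes whose loss raises luciferase production in HEK293 cells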 (primary screen). Cells: human HEK293 embryonic kidney cells stably expressing firefly luciferase (HEK-CMV-Luc2-Hygro). Reagents: single siRNA against human genes, 0.8 pmol siRNA per well. Timing: 72 h. Detection: 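Reporter luminescence and viable-cell signal on separate replicate plates, given as percent of non-targeting control and median/MAD z-scores, plus per-cell luciferase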. Direction: total luciferase, z-score and total luciferase, % of control: higher = more reporter protein produced; luciferase per cell, z-score: higher = more reporter output per viable cell; viable cells, % of control: higher = more viable cells. Hit rule: 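An siRNA counts as active if its total luciferase robust z-score exceeds 3; genes with two or more such siRNAs out of three were retested with fresh siRNAs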. Calls: active = raised luciferase; inactive = no rise.
This is a random part of about 59,000 deposited reagents. Of all reagents, about 1,510 (2.6%) got an active call. 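Calls use total luciferase alone and ignore viability, so some active siRNAs may act by altering cell number.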 Entries without a mark were called inactive. The numbers tell different reagents against one gene apart.

| Gene | reagent no. | total luciferase, z-score | total luciferase, % of control | luciferase per cell, z-score | viable cells, % of control |
| --- | --- | --- | --- | --- | --- |
| MDGA1 | 1 | -0.416 | 73.6 | -0.706 | 99.1 |
| MDGA1 | 2 | -0.457 | 72.8 | 0.0895 | 79.5 |
| MDGA1 | 3 | -1.01 | 61.7 | -0.243 | 73.5 |
| APPBP2 | 1 | 0.239 | 86.6 | 0.274 | 90.1 |
| APPBP2 | 2 | -0.248 | 77 | 0.414 | 77.1 |
| APPBP2 | 3 | 1.8 | 118 | 1.15 | 97.2 |
| RRAS2 | 1 | 1.34 | 109 | 2.65 | 60.4 |
| RRAS2 | 2 | 0.449 | 90.8 | 0.519 | 88.5 |
| RRAS2 | 3 | -1.11 | 59.8 | -0.548 | 77.2 |
| CA3 | 1 | -0.189 | 78.1 | -0.331 | 95.3 |
| CA3 | 2 | -0.761 | 66.8 | -0.947 | 95.7 |
| CA3 | 3 | -0.613 | 69.7 | -0.357 | 85.6 |
| LNX2 | 1 | -0.0225 | 81.4 | -0.147 | 94.6 |
| LNX2 | 2 | -0.702 | 67.9 | -1.02 | 99.3 |
| LNX2 | 3 | -0.357 | 74.8 | -0.0984 | 85.8 |
| KRT85 | 1 | 1.46 | 111 | 0.844 | 99.2 |
| KRT85 | 2 | -0.389 | 74.2 | -0.0816 | 84.7 |
| KRT85 | 3 | 0.283 | 87.5 | -0.0497 | 99.1 |
| MICU2 | 1 | -1.18 | 58.4 | -0.797 | 80.5 |
| MICU2 | 2 | 0.474 | 91.3 | 0.0391 | 101 |
| MICU2 | 3 | 1.62 | 114 | 0.502 | 112 |
| KCNG3 | 1 | 0.0381 | 82.6 | -0.561 | 107 |
| KCNG3 | 2 | -0.122 | 79.5 | -0.382 | 98.2 |
| KCNG3 | 3 | 2.19 | 125 | 0.969 | 109 |
| RPS25P6 | 1 | -1.33 | 55.5 | -1.33 | 88.1 |
| RPS25P6 | 2 | -1.44 | 53.2 | -0.676 | 71 |
| RPS25P6 | 3 | -1.87 | 44.7 | -2.03 | 85.1 |
| GLOD4 | 1 | 1.13 | 104 | 1.36 | 81.6 |
| GLOD4 | 2 | -0.114 | 79.6 | -0.0715 | 90.7 |
| GLOD4 | 3 | 1.61 | 114 | 1.1 | 95.3 |
| TDRD5 | 1 | -0.228 | 77.4 | -0.247 | 92.3 |
| TDRD5 | 2 | -0.704 | 67.9 | -1.04 | 99.7 |
| TDRD5 | 3 | -0.355 | 74.8 | -0.609 | 98.2 |
| SYDE2 | 1 | 0.391 | 89.7 | 0.0798 | 98.1 |
| SYDE2 | 2 | 0.544 | 92.7 | 0.122 | 100 |
| SYDE2 | 3 | -1.5 | 52.1 | -1.41 | 84.3 |
| CCDC90B | 1 | 3.78 (active) | 157 | 3.2 | 75.6 |
| CCDC90B | 2 | 0.431 | 90.5 | -0.145 | 105 |
| CCDC90B | 3 | -0.212 | 77.7 | 0.195 | 82.4 |
| MYDGF | 1 | 2.31 | 128 | 0.783 | 116 |
| MYDGF | 2 | 2.28 | 127 | 1.84 | 87.4 |
| MYDGF | 3 | -0.632 | 69.3 | -0.54 | 89.3 |
| CDCA8 | 1 | -1.5 | 52.1 | -1.86 | 95 |
| CDCA8 | 2 | -2.05 | 41.1 | -2.32 | 84.8 |
| CDCA8 | 3 | -1.16 | 58.8 | -0.33 | 71.6 |
| THAP2 | 1 | -0.443 | 73.1 | -1.01 | 107 |
| THAP2 | 2 | 1.7 | 116 | 1.74 | 81.7 |
| THAP2 | 3 | -0.213 | 77.6 | 0.718 | 71.8 |
| PLEKHG4 | 1 | 0.714 | 96.1 | 0.102 | 105 |
| PLEKHG4 | 2 | -1.89 | 44.2 | -2.47 | 94.6 |
| PLEKHG4 | 3 | -1.13 | 59.3 | -0.795 | 81.7 |
| LRRC30 | 1 | 0.166 | 85.2 | 0.233 | 89.5 |
| LRRC30 | 2 | -0.869 | 64.6 | 0.0727 | 70.8 |
| LRRC30 | 3 | 2.77 | 137 | 2.21 | 85.5 |
| PTGDS | 1 | -1.17 | 58.7 | -1.14 | 88.5 |
| PTGDS | 2 | -1 | 61.9 | -1.3 | 97.5 |
| PTGDS | 3 | -0.298 | 76 | -0.41 | 94.5 |
| HELZ2 | 1 | -0.25 | 76.9 | -0.088 | 88 |
| HELZ2 | 2 | -1.4 | 54 | -1.65 | 93.3 |
| HELZ2 | 3 | -0.58 | 70.4 | -0.402 | 87.4 |
| FSAF1 | 1 | -1.83 | 45.5 | -1.2 | 69.7 |
| FSAF1 | 2 | -0.758 | 66.8 | -1.01 | 97.5 |
| FSAF1 | 3 | -0.431 | 73.3 | -0.676 | 97.9 |
| NAPRT | 1 | 0.632 | 94.5 | 0.541 | 91.5 |
| NAPRT | 2 | 0.154 | 84.9 | 0.542 | 82.3 |
| NAPRT | 3 | 0.506 | 92 | -0.162 | 107 |
| FCRLA | 1 | 0.205 | 86 | -0.317 | 104 |
| FCRLA | 2 | -0.237 | 77.2 | -1.17 | 117 |
| FCRLA | 3 | 0.692 | 95.6 | 1.41 | 73.7 |
| NWD1 | 1 | 0.146 | 84.8 | 1.28 | 67.7 |
| NWD1 | 2 | 0.342 | 88.7 | 0.927 | 77.6 |
| NWD1 | 3 | 0.405 | 89.9 | 0.292 | 93.1 |
| HSPBAP1 | 1 | -0.451 | 72.9 | -0.15 | 84.8 |
| HSPBAP1 | 2 | -0.64 | 69.2 | -0.95 | 99.2 |
| HSPBAP1 | 3 | 0.00735 | 82 | 0.222 | 86.5 |
